# In PubChem BioAssay AID493014 (National Center for Advancing Translational Sciences (NCATS), 2011):
# Among all 340,000 compounds or so, about 170 (0.05%) were called active. The shares of active, inactive and inconclusive entries below differ from those in the screen. Calls come from the whole dose curve; as a rule, active = well fitted inhibition curve with a large enough effect in the signal ratio, with a control signal flat (not every such curve was filed as active); inconclusive = small, poorly fitted or top-dose-only effect, or effect the other way, or a change in a side signal; inactive = flat fitted curve, though single readings scatter; the % refers to the signal ratio. A potency beside an inconclusive call is a rough fit, not a confirmed value.
# Test: qHTS Assay to Find Inhibitors of Chronic Active B-Cell Receptor Signaling;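 for activity change, negative = inhibition: plate controls were basal doxycycline-induced cells for no effect and cells given 10 µM MG132 for full effect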
# Settings: ABC-DLBCL IkBa-CBG/CBR reporter, luminescence ratio (green luciferase fused to IkBa over red control in TMD8 lymphoma cells), 4 h; activity change, negative = inhibition: at 46.1 µM (top of the series)
# How it was run: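 Doxycycline induced both beetle luciferases in TMD8 lymphoma cells; IKK-driven degradation limits the IkappaBalpha-fused green signal, while red luminescence normalises for cell number and nonspecific effects. Compounds tested up to 46 uM, 4 hrs.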
# Potency is the fitted concentration of half-maximal effect.
Structure (SMILES),"activity change, negative = inhibition",Potency
CCC(=O)NCc1cc(-c2nn(C)c(=O)c3ccccc23)ccc1OC,inconclusive: -0.756%,–
Cn1nnnc1SCc1ccc(C(=O)Nc2nccs2)cc1,inconclusive: 3.66%,–
COc1cc([N+](=O)[O-])ccc1NC(=O)CN1CCc2cc(OC)c(OC)cc2C1,–,"inconclusive: 11.2 µM [falling, partial curve]"
COc1ccc(N(C(=O)CNC(=O)c2ccco2)C(C(=O)NCC2CCCO2)c2ccc(OC)c(OC)c2)cc1 (stereo not given),inactive: -0.284%,–
O=C(NCCOc1ccc(F)cc1)C1CCN(S(=O)(=O)c2ccccc2)CC1,inconclusive: 5.41%,–
COc1nc(-c2ccccc2)cc(-c2ccccc2)n1,inconclusive: 1.83%,–
COc1ccccc1C(=O)O/N=C1/CCCc2c1ccc(OC)c2[N+](=O)[O-],inactive: -2.16%,–
Cc1nc(SCc2nc3c(O)cccc3[nH]2)c2oc3ccccc3c2n1,–,"inconclusive: 9.2 µM [falling, partial curve, poor fit]"
Cc1ccccc1C(=O)NNC(=O)c1cccc([N+](=O)[O-])c1,–,"inconclusive: 14.1 µM [falling, partial curve, poor fit]"
O=C(CSc1n[nH]c(-c2ccncc2)n1)NC1CCS(=O)(=O)C1 (stereo not given),inactive: 4.91%,–
CC1CCN(CC(=O)c2c[nH]c3ccccc23)CC1,inconclusive: -19.3%,–
CCOc1ccc(/C(C)=N/NC(=O)C(OC)c2ccccc2)cc1 (stereo not given),inconclusive: 7.96%,–
CCOc1ccc(C(C(=O)NC2CCCC2)N(Cc2ccccc2)C(=O)c2nsc(Cl)c2Cl)cc1 (stereo not given),inconclusive: 15.6%,–
NC(=O)CNC1CC(=O)N(CCc2ccccc2)C1=O (stereo not given),inconclusive: 9%,–
O=C(CCCN1C(=O)/C(=C/c2ccccc2Cl)SC1=S)N1CCOCC1,–,"inconclusive: 25.1 µM [falling, single point]"
CCOc1ccc(C2C(C(=O)c3ccco3)=C(O)C(=O)N2Cc2cccnc2)cc1 (stereo not given),inconclusive: -7.86%,–
COC(=O)N1C(=O)[C@@](Cc2ccccc2)(c2ccccc2)N1C(=O)OC,–,"inconclusive: 20 µM [falling, partial curve, poor fit]"
CC(C)C(NC(=S)NCc1ccccc1)C(=O)O (stereo not given),inconclusive: 18.9%,–
COc1ccc(N(CC(=O)N/N=C/c2ccc(OC)c(OC)c2)S(=O)(=O)c2ccccc2)cc1,–,"inconclusive: 35.5 µM [falling, partial curve, poor fit]"
CCN1C(=O)C(=O)N(CC(=O)N2CCC(C)Sc3ccccc32)C1=O (stereo not given),inconclusive: 6.86%,–
Clc1cccc(-c2nc(NCC3CCCO3)c3ccccc3n2)c1 (stereo not given),inconclusive: 5.19%,–
CCO[C@H]1OC(C(=O)N2CCN(Cc3ccccc3)CC2)=C[C@@H](C2CCCCC2)[C@@H]1CCCO,inactive: -2.52%,–
C=CCc1cc(Cl)ccc1OCCOCCN(C)C,–,"inconclusive: 3.98 µM [falling, full curve, poor fit]"
CCCn1nnc(NC(=S)NC(=O)C(C)(C)C)n1,inactive: -6.76%,–
Cc1cc(=O)oc2c(C)c(OCC(=O)N3CCN(c4ccc(F)cc4)CC3)ccc12,inconclusive: 0.962%,–
Cc1cc(C(=O)Nc2nnc(C(F)(F)F)s2)cs1,–,"inconclusive: 2.82 µM [falling, full curve, poor fit]"
O=C(NCc1ccccn1)Nc1ccccc1,–,"inconclusive: 28.2 µM [falling, partial curve]"

Structure (SMILES),"activity change, negative = inhibition",Potency
Cc1cc(OCCCCNC(C)C)cc(C(C)C)c1,inconclusive: -10.6%,–
CCc1ccc(S(=O)(=O)NCCc2csc3nc(-c4ccccc4)nn23)s1,–,"inconclusive: 7.94 µM [rising, partial curve]"
O=C(Nc1nc2cc3c(cc2s1)OCO3)C1CCCCC1,–,"inconclusive: 31.6 µM [rising, partial curve]"
CC(C)(C)NCCOc1ccc(Br)cc1,inconclusive: 17%,–
O=C(CC1C(=O)NCCN1C(=O)Nc1ccc(F)cc1F)Nc1ccc(F)cc1 (stereo not given),inconclusive: -19.6%,–
COc1cc(/C=N/NC(=O)c2cc(C3CC3)[nH]n2)ccc1O,–,"inconclusive: 22.4 µM [falling, partial curve]"
COC(=O)COc1ccc(-c2ccccc2)cc1C=O,inconclusive: 10.6%,–
COc1ccc(C)cc1NC(=O)NCc1ccco1,inconclusive: 7.62%,–
COc1ccc(CCN(C)C(=O)c2ccc3c(=O)n4c(nc3c2)CCCCC4)cc1OC,inconclusive: 0.0097%,–
Cc1nn(Cc2cccc(C(=O)Nc3ccn(Cc4ccccc4F)n3)c2)c(C)c1[N+](=O)[O-],inconclusive: 23.7%,–
CCOc1ccc(Nc2nc3cc(S(=O)(=O)CC)ccc3o2)cc1,inconclusive: 18.7%,–
CCOC(=O)N1CCN(S(=O)(=O)c2ccc(C(=O)Nc3sc4c(c3C(=O)OC)CCN(C)C4)cc2)CC1,inactive: -5.68%,–
COc1cnn(-c2ccccc2)c(=O)c1OC,inconclusive: -1.97%,–
COC(=O)c1ccc(Cn2cc(C(F)(F)F)cc([N+](=O)[O-])c2=O)cc1,inconclusive: -5.81%,–
Cn1c(=O)c2c(ncn2Cc2ccccc2)n(C)c1=O,inconclusive: 9.49%,–
O=C(CN1CCCCC1)Nc1nnc(-c2ccccc2)s1,–,"inconclusive: 15.8 µM [falling, partial curve, poor fit]"
CC(C)[C@@H](N)C(=O)NC[C@H]1O[C@@H](n2cnc3c(N)ncnc32)[C@H](O)[C@@H]1O,inconclusive: 2.42%,–
COc1ccccc1NS(=O)(=O)c1cccc(C(=O)NNC(=O)c2ccc(=O)[nH]c2)c1,inconclusive: -0.212%,–
COc1ccc(CCNC(=O)CCOc2ccc(C)cc2)cc1OC,inactive: 0.317%,–
O=C(N/N=C/c1ccc(-c2cccc([N+](=O)[O-])c2)o1)c1ccccc1O,–,"inconclusive: 17.8 µM [falling, partial curve]"
NC(=O)c1cc2ccc(O)cc2oc1=NCc1ccccc1,–,"inconclusive: 29.1 µM [falling, single point]"
Cc1ccc(C)c(CSCc2nc3ccccc3[nH]2)c1,inconclusive: 3.15%,–
COC(=O)c1cc(NC(=O)COC(=O)CN2C(=O)C3CC=CCC3C2=O)cc(C(=O)OC)c1 (stereo not given),inconclusive: 1.79%,–
Cc1cc(NC(=O)CCC(=O)N(Cc2cccnc2)C(C(=O)NC(C)(C)C)c2ccccc2Cl)no1 (stereo not given),inactive: 4.44%,–
O=C(NCc1nc2ccccc2[nH]1)C1=C[C@@H](c2ccccc2)C[C@@H](OCc2ccc(CO)cc2)O1,–,"inconclusive: 14.1 µM [falling, partial curve, poor fit]"
COc1ccc(CCNC(=O)COC(=O)c2ccccc2NCCO)cc1OC,inactive: -18.3%,–
Cc1cccc(NC(=O)C(=O)NCC2CCCO2)c1 (stereo not given),–,"inconclusive: 3.98 µM [falling, partial curve]"

Structure (SMILES),"activity change, negative = inhibition",Potency
CCOc1ccc(-n2c(=S)sc3c(=O)[nH]c(SCC(=O)N4CCC(C)CC4)nc32)cc1,inconclusive: 13.7%,–
C=CCOC(=O)C(C#N)c1nc2ccccc2nc1N1CCN(Cc2ccccc2)CC1 (stereo not given),inactive: 3.87%,–
COc1ccccc1CC(=O)N(CCC1=CCCCC1)c1c(N)n(Cc2ccccc2)c(=O)[nH]c1=O,inconclusive: 0.637%,–
N/C(=N\OC(=O)CCCOc1ccccc1)c1ccccc1,inconclusive: 12.3%,–
CC(C)(C)C(=O)c1sc(Nc2ccccc2)nc1N,–,"inconclusive: 29.1 µM [falling, single point]"
Cc1ccc(N2C(=O)NC3(CCCCC3)C2=O)cc1,inconclusive: 8.16%,–
Nc1ccn([C@@H]2O[C@H](COS(=O)(=O)O)[C@@H](O)[C@H]2O)c(=O)n1,inactive: -2.85%,–
O=C(CN1C(=O)c2ccccc2S1(=O)=O)N1CCN(c2ccccc2)CC1,inconclusive: -1.35%,–
CCN1CC=C2C(C#N)=C(N)C(C#N)(C#N)[C@H](c3cccc(OC)c3OC)[C@H]2C1,inactive: -2.93%,–
C[C@@H]1CN([C@H](C)CO)C(=O)Cc2cc(NS(=O)(=O)c3ccc(Cl)cc3)ccc2O[C@H]1CN(C)Cc1ccc(C(F)(F)F)cc1,inconclusive: 11.3%,–
Cc1ccc(NC(=O)c2ccc(NCCN)c([N+](=O)[O-])c2)cc1Cl,inconclusive: -16.9%,–
O=C(C1=C[C@H](c2ccc(Br)cc2)C[C@H](OCCCCO)O1)N1CCN(Cc2ccccc2)CC1,inactive: -0.948%,–
O=C1CSC(c2ccccc2F)N1 (stereo not given),inconclusive: -9.76%,–
CCOCCCN1C(=O)CN(C2CCCCCC2)C(=O)C1c1ccc(OC)cc1 (stereo not given),inactive: 0.584%,–
CC(C)CCn1c(SCC#N)nc2c(sc3ccccc32)c1=O,–,"inconclusive: 4.11 µM [rising, full curve, poor fit]"
O=C(Cc1ccccc1)Nc1cc2c(cc1Cl)OCCCO2,inconclusive: 1.36%,–
Cc1ccc(CSC2=NCCN2S(=O)(=O)c2ccccc2)cc1,inconclusive: 1.04%,–
O=C(CSc1ncccn1)N/N=C/c1cccs1,inactive: 2.12%,–
Nc1c(C(O)(C(F)(F)F)C(F)(F)F)ccc2ccccc12,inconclusive: -0.126%,–
c1ccc(-c2[nH]ncc2-c2nc3ccccc3[nH]2)cc1,inconclusive: 4.02%,–
Cc1cc(CNC(=O)Cc2ccccc2)c2ccccc2n1,–,"inconclusive: 20 µM [falling, partial curve, poor fit]"
CC#CC[N+](C)(C)CCCCCCCCCC,inconclusive: -3.22%,–
COc1ccc(C2C(=O)N(C3CCCCCC3)CC(=O)N2Cc2ccc(C)cc2)cc1OC (stereo not given),inconclusive: -0.587%,–
CC1CCCC(C)N1C(=O)CSc1nc2ccccc2c(=O)[nH]1 (stereo not given),inconclusive: 7.42%,–
COc1ccc(NC(=O)CN2CCC(C)CC2)cc1,inactive: 12.6%,–
COc1ccccc1C1CCN(Cc2ccc(C)cc2)CC1,inconclusive: 2.3%,–

# In a second layout: results already given
Structure (SMILES) | activity change, negative = inhibition | Potency
O=C(C1=C[C@H](c2ccc(Br)cc2)C[C@H](OCCCCO)O1)N1CCN(Cc2ccccc2)CC1 | inactive: -0.948% | –
O=C1CSC(c2ccccc2F)N1 (stereo not given) | inconclusive: -9.76% | –
CCOCCCN1C(=O)CN(C2CCCCCC2)C(=O)C1c1ccc(OC)cc1 (stereo not given) | inactive: 0.584% | –
